We go through 2 molecules from publication PMC4395284.

Protein sequences, listed by entry. Tags and fused reporters are not part of them.
UniProt O54803: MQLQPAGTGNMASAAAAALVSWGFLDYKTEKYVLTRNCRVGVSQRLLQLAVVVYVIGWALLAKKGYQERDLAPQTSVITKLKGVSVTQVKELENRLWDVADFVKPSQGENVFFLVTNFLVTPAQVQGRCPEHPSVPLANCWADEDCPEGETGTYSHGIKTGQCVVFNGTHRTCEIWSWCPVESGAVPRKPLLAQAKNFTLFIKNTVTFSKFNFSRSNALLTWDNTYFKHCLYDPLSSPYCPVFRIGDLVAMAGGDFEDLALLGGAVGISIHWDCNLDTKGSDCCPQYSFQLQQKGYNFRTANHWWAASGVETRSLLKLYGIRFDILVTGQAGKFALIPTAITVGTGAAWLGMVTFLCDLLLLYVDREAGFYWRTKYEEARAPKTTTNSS

In this assay the target is P2X6 subunit (native, mouse hippocampus) (mouse (endogenous in hippocampus)) (UniProt O54803). Nature of the assay: affinity purification with mass spectrometry; nuclear extracts of adult mouse hippocampus immunoprecipitated with anti-P2X6 antibody or IgG on MagSi-ProteinG beads; eluate resolved on a 2D gel, spots identified by MALDI-TOF/TOF.

No constants are given. Whether binding was seen depends on the method and setting. In cells and extracts the contact can be indirect. A yes stands for co-enrichment or nearness to the bait. Other partners may have been found.

For “spectrin α2 (from UniProt P16546 1-2472)”, the binding result is recorded as “binds”.

B1: splicing factor 3 subunit A1 (SF3A1), mouse hippocampus (protein, UniProt Q8K4Z5 1-791)
chain: MQAGPVQAVPPPPPVATESKQPIEEEASSKEDPTPSKPVVGIIYPPPEVRNIVDKTASFVARNGPEFEARIRQNEINNPKFNFLNPNDPYHAYYRHKVSEFKEGKAQEPSAAIPKVMQQQQQATQQQLPQKVQAQVIQETIVPKEPPPEFEFIADPPSISAFDLDVVKLTAQFVARNGRQFLTQLMQKEQRNYQFDFLRPQHSLFNYFTKLVEQYTKILIPPKGLFSKLKKEAENPREVLDQVCYRVEWAKFQERERKKEEEEKEKERVAYAQIDWHDFVVVETVDFQPNEQGNFPPPTTPEELGARILIQERYEKFGESEEVEMEVESDEEDQEKAEETPSQLDQDTQVQDMDEGSDDEEEGQKVPPPPETPMPPPLPPTPDQVIVRKDYDPKASKPLPPAPAPDEYLVSPITGEKIPASKMQEHMRIGLLDPRWLEQRDRSIREKQSDDEVYAPGLDIESSLKQLAERRTDIFGVEETAIGKKIGEEEIQKPEEKVTWDGHSGSMARTQQAAQANITLQEQIEAIHKAKGLVPEDDTKEKIGPSKPNEIPQQPPPPSSATNIPSSAPPITSVPRPPAMPPPVRTTVVSAVPVMPRPPMASVVRLPPGSVIAPMPPIIHAPRINVVPMPPAAPPIMAPRPPPMIVPTAFVPAPPVAPVPAPAPMPPVHPPPPMEDEPPSKKLKTEDSLMPEEEFLRRNKGPVSIKVQVPNMQDKTEWKLNGQGLVFTLPLTDQVSVIKVKIHEATGMPAGKQKLQYEGIFIKDSNSLAYYNMASGAVIHLALKERGGRKK
As for B1, the binding result is given as “binds”.
